# Laboratory results reported in the supplement of paper PMC8728848.
# This is one part of the list.
# B1: SUN4 (Saccharomyces cerevisiae), P53616 (protein)
# chain: MGSSHHHHHHSSGLVPRGSHNGSIYGDLADFSGPYEKFEDGTIPCGQFPSGQGVIPISWLDEGGWSGVENTDTSTGGSCKEGSYCSYACQPGMSKTQWPSDQPSDGRSIGGLLCKDGYLYRSNTDTDYLCEWGVDAAYVVSELSNDVAICRTDYPGTENMVIPTYVQAGDSLPLTVVDQDTYYTWQGLKTSAQYYVNNAGISVEDACVWGSSSSGVGNWAPLNFGAGSSDGVAYLSLIPNPNNGNALNFNVKIVAADDSSTVNGECIYENGSFSGGSDGCTVSVTAGKAKFVLYN
# Legend:
# Assay in all cases: glycan array binding signal (z-score within array); higher = stronger binding
# Details in all cases: glycan notation: IUPAC condensed, linker removed
# Gal(a1-6)Glc = target: Gal(a1-6)Glc
# Outline: (§1)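 Arrays were curated from the Consortium for Functional Glycomics database, 3228 in total, and kept only where the protein sequence was available. Binding is expressed as a within-array Z-score. This score was averaged across arrays of the same protein sequence at different concentrations or buffers and across linkers, and negative values can be read as non-binding.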
# Gal(b1-2)Gal = target: Gal(b1-2)Gal
# Outline: as §1
# Gal(b1-3)Gal = target: Gal(b1-3)Gal
# Outline: as §1
# Gal(b1-3)Gal(b1-4)GlcNAc = target: Gal(b1-3)Gal(b1-4)GlcNAc
# Outline: as §1
# Gal(b1-3)GalNAc = target: Gal(b1-3)GalNAc
# Outline: as §1
# [1] = target: Gal(b1-3)GalNAc(a1-3)[Fuc(a1-2)]Gal(b1-4)Glc
# Outline: as §1
# [2] = target: Gal(b1-3)GalNAc(a1-3)[Fuc(a1-2)]Gal(b1-4)GlcNAc
# Outline: as §1
# Gal(b1-3)GalNAc(b1-3)Gal = target: Gal(b1-3)GalNAc(b1-3)Gal
# Outline: as §1
# [3] = target: Gal(b1-3)GalNAc(b1-3)Gal(a1-4)Gal(b1-4)Glc
# Outline: as §1
# [4] = target: Gal(b1-3)GalNAc(b1-4)Gal(b1-4)Glc
# Outline: as §1
# [5] = target: Gal(b1-3)GalNAc(b1-4)[Neu5Ac(a2-3)]Gal(b1-4)Glc
# Outline: as §1
# Gal(b1-3)GlcNAc = target: Gal(b1-3)GlcNAc
# Outline: as §1
# [6] = target: Gal(b1-3)GlcNAc(a1-3)Gal(b1-4)GlcNAc
# Outline: as §1
# [7] = target: Gal(b1-3)GlcNAc(a1-6)Gal(b1-4)GlcNAc
# Outline: as §1
# Gal(b1-3)GlcNAc(b1-2)Man = target: Gal(b1-3)GlcNAc(b1-2)Man
# Outline: as §1
# [8] = target: Gal(b1-3)GlcNAc(b1-2)Man(a1-3)[Gal(b1-3)GlcNAc(b1-2)Man(a1-6)]Man(b1-4)GlcNAc(b1-4)GlcNAc
# Outline: as §1
# [9] = target: Gal(b1-3)GlcNAc(b1-2)Man(a1-3)[Gal(b1-3)GlcNAc(b1-2)Man(a1-6)]Man(b1-4)GlcNAc(b1-4)[Fuc(a1-6)]GlcNAc
# Outline: as §1
# [10] = target: Gal(b1-3)GlcNAc(b1-2)Man(a1-3)[GlcNAc(b1-4)][Gal(b1-3)GlcNAc(b1-2)Man(a1-6)]Man(b1-4)GlcNAc(b1-4)GlcNAc
# Outline: as §1
# [11] = target: Gal(b1-3)GlcNAc(b1-2)[Gal(b1-3)GlcNAc(b1-6)]Man(a1-6)[Gal(b1-3)GlcNAc(b1-2)Man(a1-3)]Man(b1-4)GlcNAc(b1-4)GlcNAc
# Outline: as §1
# [12] = target: Gal(b1-3)GlcNAc(b1-3)Gal(b1-3)GlcNAc
# Outline: as §1
# [13] = target: Gal(b1-3)GlcNAc(b1-3)Gal(b1-4)Glc
# Outline: as §1
# [14] = target: Gal(b1-3)GlcNAc(b1-3)Gal(b1-4)GlcNAc
# Outline: as §1
# [15] = target: Gal(b1-3)GlcNAc(b1-3)Gal(b1-4)GlcNAc(b1-2)Man(a1-3)[Gal(b1-3)GlcNAc(b1-3)Gal(b1-4)GlcNAc(b1-2)Man(a1-6)]Man(b1-4)GlcNAc(b1-4)GlcNAc
# Outline: as §1
# [16] = target: Gal(b1-3)GlcNAc(b1-3)Gal(b1-4)GlcNAc(b1-2)[Gal(b1-3)GlcNAc(b1-3)Gal(b1-4)GlcNAc(b1-6)]Man(a1-6)[Gal(b1-3)GlcNAc(b1-3)Gal(b1-4)GlcNAc(b1-2)Man(a1-3)]Man(b1-4)GlcNAc(b1-4)[Fuc(a1-6)]GlcNAc
# Outline: as §1
# [17] = target: Gal(b1-3)GlcNAc(b1-3)Gal(b1-4)GlcNAc(b1-3)Gal(b1-4)GlcNAc(b1-2)[Gal(b1-3)GlcNAc(b1-3)Gal(b1-4)GlcNAc(b1-3)Gal(b1-4)GlcNAc(b1-6)]Man(a1-6)[Gal(b1-3)GlcNAc(b1-3)Gal(b1-4)GlcNAc(b1-3)Gal(b1-4)GlcNAc(b1-2)Man(a1-3)]Man(b1-4)GlcNAc(b1-4)[Fuc(a1-6)]GlcNAc
# Outline: as §1
# [18] = target: Gal(b1-3)GlcNAc(b1-3)Gal(b1-4)GlcNAc(b1-6)[Gal(b1-3)GlcNAc(b1-3)]Gal(b1-4)Glc
# Outline: as §1
# [19] = target: Gal(b1-3)GlcNAc(b1-3)Gal(b1-4)[Fuc(a1-3)]GlcNAc
# Outline: as §1
# [20] = target: Gal(b1-3)GlcNAc(b1-3)Gal(b1-4)[Fuc(a1-3)]GlcNAc(b1-6)[Gal(b1-3)GlcNAc(b1-3)]Gal(b1-4)Glc
# Outline: as §1
# [21] = target: Gal(b1-3)GlcNAc(b1-3)GalNAc
# Outline: as §1
# [22] = target: Gal(b1-3)GlcNAc(b1-6)Gal(b1-4)GlcNAc
# Outline: as §1
# [23] = target: Gal(b1-3)GlcNAc(b1-6)GalNAc
# Outline: as §1
# [24] = target: Gal(b1-3)GlcNAc(b1-6)[Gal(b1-3)]GalNAc
# Outline: as §1
# Gal(b1-3)GlcNAc6S = target: Gal(b1-3)GlcNAc6S
# Outline: as §1
# [25] = target: Gal(b1-3)[Fuc(a1-4)]GlcNAc
# Outline: as §1
# [26] = target: Gal(b1-3)[Fuc(a1-4)]GlcNAc(b1-2)Man
# Outline: as §1
# [27] = target: Gal(b1-3)[Fuc(a1-4)]GlcNAc(b1-2)Man(a1-3)[Gal(b1-3)[Fuc(a1-4)]GlcNAc(b1-2)Man(a1-6)]Man(b1-4)GlcNAc(b1-4)[Fuc(a1-6)]GlcNAc
# Outline: as §1
# [28] = target: Gal(b1-3)[Fuc(a1-4)]GlcNAc(b1-3)Gal(b1-3)[Fuc(a1-4)]GlcNAc
# Outline: as §1
binder,measurement,setting,value
B1,glycan array binding signal (z-score),Gal(a1-6)Glc,-1.22
same,glycan array binding signal (z-score),Gal(b1-2)Gal,0.236
same,glycan array binding signal (z-score),Gal(b1-3)Gal,0.331
same,glycan array binding signal (z-score),Gal(b1-3)Gal(b1-4)GlcNAc,0.303
same,glycan array binding signal (z-score),Gal(b1-3)GalNAc,-0.297
same,glycan array binding signal (z-score),[1],-0.308
same,glycan array binding signal (z-score),[2],0.109
same,glycan array binding signal (z-score),Gal(b1-3)GalNAc(b1-3)Gal,-0.668
same,glycan array binding signal (z-score),[3],0.295
same,glycan array binding signal (z-score),[4],0.219
same,glycan array binding signal (z-score),[5],-0.591
same,glycan array binding signal (z-score),Gal(b1-3)GlcNAc,-0.679
same,glycan array binding signal (z-score),[6],0.196
same,glycan array binding signal (z-score),[7],-0.44
same,glycan array binding signal (z-score),Gal(b1-3)GlcNAc(b1-2)Man,0.274
same,glycan array binding signal (z-score),[8],-0.74
same,glycan array binding signal (z-score),[9],-0.257
same,glycan array binding signal (z-score),[10],-0.166
same,glycan array binding signal (z-score),[11],-0.743
same,glycan array binding signal (z-score),[12],0.197
same,glycan array binding signal (z-score),[13],0.536
same,glycan array binding signal (z-score),[14],-0.542
same,glycan array binding signal (z-score),[15],0.342
same,glycan array binding signal (z-score),[16],1.49
same,glycan array binding signal (z-score),[17],0.455
same,glycan array binding signal (z-score),[18],-0.058
same,glycan array binding signal (z-score),[19],0.131
same,glycan array binding signal (z-score),[20],-0.488
same,glycan array binding signal (z-score),[21],-0.163
same,glycan array binding signal (z-score),[22],-0.721
same,glycan array binding signal (z-score),[23],-0.048
same,glycan array binding signal (z-score),[24],0.101
same,glycan array binding signal (z-score),Gal(b1-3)GlcNAc6S,0.534
same,glycan array binding signal (z-score),[25],-0.633
same,glycan array binding signal (z-score),[26],0.706
same,glycan array binding signal (z-score),[27],0.905
same,glycan array binding signal (z-score),[28],-0.522

# Shown bar-delimited: entries from further up
binder | measurement | setting | value
B1 | glycan array binding signal (z-score) | Gal(b1-2)Gal | 0.236
same | glycan array binding signal (z-score) | [21] | -0.163
